# ± gives the standard deviation of the averaged measurements. The entries are a selection whose mix differs from that of the whole data set.
# By UniProt entry, the sequences of proteins in these tests, tags left out. Where a name states a change or a piece, a line headed by the entry shows the natural chain unless it says otherwise.
# UniProt Q9H4G4: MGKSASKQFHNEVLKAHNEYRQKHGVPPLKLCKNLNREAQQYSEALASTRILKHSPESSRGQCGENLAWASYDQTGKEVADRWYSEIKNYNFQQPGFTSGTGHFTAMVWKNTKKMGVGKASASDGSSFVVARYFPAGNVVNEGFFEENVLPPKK
# UniProt Q9HBL8: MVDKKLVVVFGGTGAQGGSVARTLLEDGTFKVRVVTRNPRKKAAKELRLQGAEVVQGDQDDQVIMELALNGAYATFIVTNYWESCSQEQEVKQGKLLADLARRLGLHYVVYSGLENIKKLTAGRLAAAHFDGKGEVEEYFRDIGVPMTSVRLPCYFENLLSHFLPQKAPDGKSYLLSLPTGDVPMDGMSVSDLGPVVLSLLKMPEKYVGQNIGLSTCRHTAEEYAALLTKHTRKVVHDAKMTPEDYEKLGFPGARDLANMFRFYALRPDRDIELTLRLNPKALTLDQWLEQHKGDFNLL
# UniProt Q9C0F1: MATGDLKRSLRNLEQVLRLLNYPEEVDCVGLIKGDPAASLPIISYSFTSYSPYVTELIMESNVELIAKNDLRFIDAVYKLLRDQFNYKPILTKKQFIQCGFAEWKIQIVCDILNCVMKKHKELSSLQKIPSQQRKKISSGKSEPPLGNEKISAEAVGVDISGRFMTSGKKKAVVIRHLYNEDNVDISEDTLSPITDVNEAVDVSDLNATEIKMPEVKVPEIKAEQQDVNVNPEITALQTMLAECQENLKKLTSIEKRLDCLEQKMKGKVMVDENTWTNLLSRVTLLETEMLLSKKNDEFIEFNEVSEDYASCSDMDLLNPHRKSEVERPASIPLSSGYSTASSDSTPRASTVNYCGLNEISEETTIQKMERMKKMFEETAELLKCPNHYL
# UniProt Q9H832: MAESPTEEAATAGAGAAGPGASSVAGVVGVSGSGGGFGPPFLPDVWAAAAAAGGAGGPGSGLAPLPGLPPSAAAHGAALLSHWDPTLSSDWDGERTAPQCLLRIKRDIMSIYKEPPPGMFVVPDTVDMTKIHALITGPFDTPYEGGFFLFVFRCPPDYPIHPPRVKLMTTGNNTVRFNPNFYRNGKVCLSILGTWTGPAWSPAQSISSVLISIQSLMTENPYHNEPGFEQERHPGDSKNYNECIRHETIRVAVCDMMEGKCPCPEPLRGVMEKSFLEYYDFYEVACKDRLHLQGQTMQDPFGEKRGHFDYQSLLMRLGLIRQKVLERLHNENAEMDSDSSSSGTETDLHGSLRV
# UniProt Q9H6K5: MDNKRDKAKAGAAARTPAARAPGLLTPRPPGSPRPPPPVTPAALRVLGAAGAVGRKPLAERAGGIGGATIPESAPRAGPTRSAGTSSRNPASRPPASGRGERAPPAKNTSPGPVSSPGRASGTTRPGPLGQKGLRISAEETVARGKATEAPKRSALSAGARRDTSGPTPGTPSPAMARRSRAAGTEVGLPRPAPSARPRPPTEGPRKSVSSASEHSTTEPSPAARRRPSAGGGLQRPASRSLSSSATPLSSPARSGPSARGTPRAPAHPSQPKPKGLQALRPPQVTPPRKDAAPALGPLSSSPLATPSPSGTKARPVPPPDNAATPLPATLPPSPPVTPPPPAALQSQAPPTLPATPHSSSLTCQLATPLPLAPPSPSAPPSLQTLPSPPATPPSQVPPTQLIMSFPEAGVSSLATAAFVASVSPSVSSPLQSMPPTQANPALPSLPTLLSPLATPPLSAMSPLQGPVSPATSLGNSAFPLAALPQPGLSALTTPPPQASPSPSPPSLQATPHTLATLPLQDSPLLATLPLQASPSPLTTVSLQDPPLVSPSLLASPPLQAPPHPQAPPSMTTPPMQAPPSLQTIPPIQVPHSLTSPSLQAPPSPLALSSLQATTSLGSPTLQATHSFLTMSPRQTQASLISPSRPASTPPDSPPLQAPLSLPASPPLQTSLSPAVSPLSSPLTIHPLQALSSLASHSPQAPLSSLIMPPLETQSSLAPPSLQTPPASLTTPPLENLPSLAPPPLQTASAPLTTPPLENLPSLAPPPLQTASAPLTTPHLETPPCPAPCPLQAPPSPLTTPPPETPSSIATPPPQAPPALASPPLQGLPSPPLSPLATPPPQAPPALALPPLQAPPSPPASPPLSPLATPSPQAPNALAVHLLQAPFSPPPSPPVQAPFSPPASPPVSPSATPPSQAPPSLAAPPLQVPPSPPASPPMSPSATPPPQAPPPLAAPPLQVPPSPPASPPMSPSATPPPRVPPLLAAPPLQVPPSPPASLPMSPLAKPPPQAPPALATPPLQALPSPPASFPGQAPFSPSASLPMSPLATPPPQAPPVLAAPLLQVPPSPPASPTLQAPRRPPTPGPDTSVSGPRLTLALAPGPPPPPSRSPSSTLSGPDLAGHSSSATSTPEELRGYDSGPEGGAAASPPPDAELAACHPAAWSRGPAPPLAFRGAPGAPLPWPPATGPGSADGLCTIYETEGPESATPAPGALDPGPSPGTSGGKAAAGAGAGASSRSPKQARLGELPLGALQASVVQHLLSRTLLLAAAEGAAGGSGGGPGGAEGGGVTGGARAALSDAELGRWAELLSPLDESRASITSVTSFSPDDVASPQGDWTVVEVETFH
# UniProt Q9H3N1: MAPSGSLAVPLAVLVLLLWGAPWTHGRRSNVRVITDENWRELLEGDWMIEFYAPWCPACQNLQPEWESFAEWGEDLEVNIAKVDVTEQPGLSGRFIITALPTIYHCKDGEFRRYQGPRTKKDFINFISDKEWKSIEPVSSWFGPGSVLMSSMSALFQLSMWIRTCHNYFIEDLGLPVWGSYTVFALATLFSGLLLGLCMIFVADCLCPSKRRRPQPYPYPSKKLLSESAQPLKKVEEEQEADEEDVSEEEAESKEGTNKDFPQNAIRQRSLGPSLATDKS
# UniProt Q9H7F0: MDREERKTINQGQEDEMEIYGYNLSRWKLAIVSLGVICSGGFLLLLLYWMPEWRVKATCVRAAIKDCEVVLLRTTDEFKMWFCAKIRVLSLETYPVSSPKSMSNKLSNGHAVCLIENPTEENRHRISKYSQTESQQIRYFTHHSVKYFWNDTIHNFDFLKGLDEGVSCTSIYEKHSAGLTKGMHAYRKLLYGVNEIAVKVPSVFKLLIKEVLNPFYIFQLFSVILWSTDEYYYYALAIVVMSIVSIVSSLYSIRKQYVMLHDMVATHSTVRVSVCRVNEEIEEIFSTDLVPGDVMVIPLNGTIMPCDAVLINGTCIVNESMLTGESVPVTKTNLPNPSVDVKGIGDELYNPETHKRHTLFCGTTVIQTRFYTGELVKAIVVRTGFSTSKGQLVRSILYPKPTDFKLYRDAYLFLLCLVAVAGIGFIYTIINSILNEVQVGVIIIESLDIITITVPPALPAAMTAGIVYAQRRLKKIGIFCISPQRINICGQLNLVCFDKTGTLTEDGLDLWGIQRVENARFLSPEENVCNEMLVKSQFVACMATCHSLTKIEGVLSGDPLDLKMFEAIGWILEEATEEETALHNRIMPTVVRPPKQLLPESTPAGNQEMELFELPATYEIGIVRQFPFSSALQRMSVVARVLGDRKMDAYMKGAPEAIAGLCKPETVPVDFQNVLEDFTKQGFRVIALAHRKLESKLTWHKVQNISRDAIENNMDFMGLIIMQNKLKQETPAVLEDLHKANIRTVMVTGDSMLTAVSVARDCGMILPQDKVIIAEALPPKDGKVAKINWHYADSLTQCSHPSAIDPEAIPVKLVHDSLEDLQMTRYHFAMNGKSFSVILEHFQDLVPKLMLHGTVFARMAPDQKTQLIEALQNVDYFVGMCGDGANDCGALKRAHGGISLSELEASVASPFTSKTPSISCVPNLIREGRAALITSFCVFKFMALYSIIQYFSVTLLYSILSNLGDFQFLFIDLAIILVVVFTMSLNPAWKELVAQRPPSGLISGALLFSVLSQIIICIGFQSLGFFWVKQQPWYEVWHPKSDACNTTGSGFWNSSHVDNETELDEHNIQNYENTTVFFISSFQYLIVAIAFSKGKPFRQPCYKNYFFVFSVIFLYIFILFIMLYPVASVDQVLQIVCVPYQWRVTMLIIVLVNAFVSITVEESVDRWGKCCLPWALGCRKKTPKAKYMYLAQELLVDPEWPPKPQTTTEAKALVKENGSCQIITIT
# UniProt Q9H9T3: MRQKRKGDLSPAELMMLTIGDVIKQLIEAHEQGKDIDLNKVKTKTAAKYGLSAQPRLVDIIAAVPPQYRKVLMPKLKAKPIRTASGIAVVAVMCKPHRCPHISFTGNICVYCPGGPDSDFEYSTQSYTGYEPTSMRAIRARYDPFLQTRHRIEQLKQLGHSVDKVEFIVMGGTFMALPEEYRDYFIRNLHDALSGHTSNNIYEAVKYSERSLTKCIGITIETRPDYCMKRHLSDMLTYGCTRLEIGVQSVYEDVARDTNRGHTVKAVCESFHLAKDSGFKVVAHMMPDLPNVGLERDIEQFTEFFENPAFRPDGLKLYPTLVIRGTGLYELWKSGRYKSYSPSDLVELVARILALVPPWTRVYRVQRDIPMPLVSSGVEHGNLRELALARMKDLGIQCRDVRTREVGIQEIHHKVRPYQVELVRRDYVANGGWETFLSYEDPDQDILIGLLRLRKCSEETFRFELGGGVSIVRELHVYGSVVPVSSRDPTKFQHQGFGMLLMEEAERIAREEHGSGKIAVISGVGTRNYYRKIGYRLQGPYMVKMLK
# UniProt Q9H4X1: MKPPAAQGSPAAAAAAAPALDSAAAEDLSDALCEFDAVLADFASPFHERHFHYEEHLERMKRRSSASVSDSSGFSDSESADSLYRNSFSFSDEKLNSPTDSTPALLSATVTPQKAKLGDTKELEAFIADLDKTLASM
# UniProt Q9GZP4: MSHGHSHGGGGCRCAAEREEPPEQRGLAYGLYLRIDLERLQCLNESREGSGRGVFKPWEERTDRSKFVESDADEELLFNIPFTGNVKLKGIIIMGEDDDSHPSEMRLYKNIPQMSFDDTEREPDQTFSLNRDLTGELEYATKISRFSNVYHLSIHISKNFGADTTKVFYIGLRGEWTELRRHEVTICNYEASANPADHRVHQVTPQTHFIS
# UniProt Q9H9A5, whole entry: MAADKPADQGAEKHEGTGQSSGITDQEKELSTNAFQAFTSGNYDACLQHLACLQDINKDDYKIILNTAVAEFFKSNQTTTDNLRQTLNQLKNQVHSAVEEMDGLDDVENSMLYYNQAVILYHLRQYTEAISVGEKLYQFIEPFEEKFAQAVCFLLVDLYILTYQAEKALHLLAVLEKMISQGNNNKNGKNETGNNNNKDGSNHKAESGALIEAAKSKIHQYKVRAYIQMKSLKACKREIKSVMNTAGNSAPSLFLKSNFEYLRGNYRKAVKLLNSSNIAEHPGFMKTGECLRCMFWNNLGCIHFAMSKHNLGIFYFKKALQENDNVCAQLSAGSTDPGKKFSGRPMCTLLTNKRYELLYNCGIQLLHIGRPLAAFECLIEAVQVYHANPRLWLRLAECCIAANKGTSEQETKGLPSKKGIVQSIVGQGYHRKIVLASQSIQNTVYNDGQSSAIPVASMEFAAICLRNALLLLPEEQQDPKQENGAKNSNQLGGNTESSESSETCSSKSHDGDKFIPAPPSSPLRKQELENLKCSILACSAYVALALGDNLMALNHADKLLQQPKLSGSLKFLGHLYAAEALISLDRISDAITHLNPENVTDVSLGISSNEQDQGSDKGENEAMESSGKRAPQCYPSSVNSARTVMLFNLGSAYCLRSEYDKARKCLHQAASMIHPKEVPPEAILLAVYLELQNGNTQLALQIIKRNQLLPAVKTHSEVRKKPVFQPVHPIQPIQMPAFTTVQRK
# UniProt Q9HCG8: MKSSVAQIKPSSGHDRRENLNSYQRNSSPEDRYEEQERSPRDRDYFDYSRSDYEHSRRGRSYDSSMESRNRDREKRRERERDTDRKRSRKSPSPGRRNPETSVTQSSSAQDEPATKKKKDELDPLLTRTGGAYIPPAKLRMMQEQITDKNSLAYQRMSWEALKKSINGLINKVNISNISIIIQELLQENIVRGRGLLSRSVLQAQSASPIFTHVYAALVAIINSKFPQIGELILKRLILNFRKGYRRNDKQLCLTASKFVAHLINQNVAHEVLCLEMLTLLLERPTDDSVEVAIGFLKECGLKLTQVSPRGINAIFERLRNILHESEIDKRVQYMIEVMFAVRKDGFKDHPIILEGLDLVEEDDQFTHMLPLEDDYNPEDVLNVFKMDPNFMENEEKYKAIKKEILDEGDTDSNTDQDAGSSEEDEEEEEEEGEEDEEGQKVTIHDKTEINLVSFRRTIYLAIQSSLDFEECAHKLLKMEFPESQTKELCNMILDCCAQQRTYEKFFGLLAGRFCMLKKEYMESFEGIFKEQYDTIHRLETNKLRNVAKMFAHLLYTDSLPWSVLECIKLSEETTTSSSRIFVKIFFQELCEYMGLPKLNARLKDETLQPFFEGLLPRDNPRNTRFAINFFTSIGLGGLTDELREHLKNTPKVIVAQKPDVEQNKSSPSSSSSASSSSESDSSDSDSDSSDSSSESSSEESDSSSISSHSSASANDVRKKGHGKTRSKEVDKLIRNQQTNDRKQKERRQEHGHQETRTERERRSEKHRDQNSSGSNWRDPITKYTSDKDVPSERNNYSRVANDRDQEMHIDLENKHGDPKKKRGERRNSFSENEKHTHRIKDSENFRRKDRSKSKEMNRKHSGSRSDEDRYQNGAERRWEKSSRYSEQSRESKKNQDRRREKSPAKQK
# Compound: Nc1ncnc2c1ncn2[C@@H]1O[C@H](COP(=O)(O)OP(=O)(O)OP(=O)(O)O)[C@@H](O)[C@H]1O [adenosine triphosphate]
# Test: NP40-soluble protein abundance relative to vehicle (solubility fold change) (ratio); higher = more soluble protein in presence of ATP
# How it was run: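 Data come from three independent experiments in which Dounce-homogenised Jurkat crude lysate was treated at eight concentrations from 0.1 to 10 mM. Treatment ran 10 min at room temperature and then 3 min at 37 °C, after which 0.8% NP40 and benzonase were added for 60 min at 4 °C before ultracentrifugation. The supernatant underwent TMT labelling and LC-MS/MS, and vsn-normalised intensities were expressed as fold change against the detergent-processed vehicle in each replicate.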
Target,NP40-soluble protein abundance (concentration: 1mM),NP40-soluble protein abundance (concentration: 2mM),NP40-soluble protein abundance (concentration: 4mM),NP40-soluble protein abundance (concentration: 6mM),NP40-soluble protein abundance (concentration: 8mM),NP40-soluble protein abundance (concentration: 10mM)
UniProt Q9H4A4 and related entries,1.07 ± 0.026,1.02 ± 0.035,1.01 ± 0.05,0.973 ± 0.074,1.04 ± 0.027,0.994 ± 0.032
UniProt Q9H0P0 and related entries,0.983 ± 0.051,0.96 ± 0.03,0.981 ± 0.013,0.988 ± 0.045,0.948 ± 0.077,0.952 ± 0.062
GLIPR2 (UniProt Q9H4G4),0.9756 ± 0.0029,0.976 ± 0.019,0.926 ± 0.021,0.998 ± 0.013,0.952 ± 0.032,0.937 ± 0.028
UniProt Q9H7E2-3,0.927 ± 0.071,0.98 ± 0.092,1.03 ± 0.093,1.1 ± 0.05,1.1 ± 0.057,1.23 ± 0.066
NMRAL1 (UniProt Q9HBL8),0.997 ± 0.026,0.976 ± 0.034,0.944 ± 0.035,0.952 ± 0.048,0.96 ± 0.059,0.946 ± 0.029
UniProt Q9C0I1,0.964 ± 0.12,0.965 ± 0.068,0.956 ± 0.14,0.924 ± 0.099,0.962 ± 0.1,0.942 ± 0.091
UniProt Q9C0F1,0.931 ± 0.019,0.922 ± 0.023,0.96 ± 0.065,1 ± 0.1,0.951 ± 0.049,0.928 ± 0.02
UniProt Q9H832 and related entries,0.927 ± 0.038,0.952 ± 0.025,0.93 ± 0.032,0.915 ± 0.018,0.899 ± 0.025,0.913 ± 0.025
TSPYL1 (UniProt Q9H0U9),0.965 ± 0.043,1.01 ± 0.018,0.931 ± 0.029,0.978 ± 0.043,1.03 ± 0.039,0.975 ± 0.075
UniProt Q9H6K5 and related entries,0.986 ± 0.1,0.967 ± 0.098,0.977 ± 0.053,0.975 ± 0.096,0.908 ± 0.051,0.931 ± 0.069
UNK (UniProt Q9C0B0),1.08 ± 0.061,1.1 ± 0.035,1.13 ± 0.044,1.19 ± 0.054,1.131 ± 0.0036,1.14 ± 0.018
UniProt Q9C0H2 and related entries,0.915 ± 0.057,0.879 ± 0.084,0.892 ± 0.076,0.953 ± 0.027,0.963 ± 0.051,0.87 ± 0.1
WDR12 (UniProt Q9GZL7),1.03 ± 0.11,1 ± 0.08,0.985 ± 0.061,0.934 ± 0.12,1 ± 0.059,0.987 ± 0.024
UniProt Q9H903 and related entries,1.03 ± 0.078,0.914 ± 0.053,1.06 ± 0.17,0.996 ± 0.06,0.999 ± 0.11,0.928 ± 0.022
UniProt Q9H3N1,0.898 ± 0.054,0.904 ± 0.054,0.871 ± 0.025,0.94 ± 0.015,0.853 ± 0.049,0.851 ± 0.037
UniProt Q9H7F0 and related entries,1.07 ± 0.037,1.06 ± 0.091,1.13 ± 0.17,1.12 ± 0.052,1.02 ± 0.024,1.05 ± 0.09
PARVG (UniProt Q9HBI0),1 ± 0.12,0.993 ± 0.085,0.978 ± 0.09,0.877 ± 0.14,0.972 ± 0.057,0.982 ± 0.053
UniProt Q9H9T3 and related entries,1.04 ± 0.1,0.988 ± 0.039,0.962 ± 0.037,0.934 ± 0.027,1 ± 0.0067,0.973 ± 0.017
UniProt Q9H4X1 and related entries,0.952 ± 0.07,0.95 ± 0.074,0.973 ± 0.092,1.06 ± 0.16,0.922 ± 0.095,0.887 ± 0.13
UniProt Q9HCM1,0.92 ± 0.12,0.938 ± 0.12,0.998 ± 0.16,1.05 ± 0.21,0.972 ± 0.17,0.935 ± 0.077
UniProt Q9GZP4,0.988 ± 0.045,0.991 ± 0.05,0.936 ± 0.066,0.993 ± 0.049,0.942 ± 0.067,0.93 ± 0.026
UniProt Q9H165 and related entries,0.943 ± 0.023,1.23 ± 0.12,1.19 ± 0.16,1.25 ± 0.048,1.25 ± 0.048,1.2 ± 0.081
UniProt Q9H813 and related entries,1.05 ± 0.12,1.09 ± 0.061,1.08 ± 0.042,1 ± 0.055,1.04 ± 0.096,1.05 ± 0.038
NOL11 (UniProt Q9H8H0),1.03 ± 0.11,1.17 ± 0.069,1.11 ± 0.016,1.24 ± 0.048,1.29 ± 0.084,1.23 ± 0.21
UniProt Q9H9A5 and related entries,1.11 ± 0.045,1.15 ± 0.025,1.22 ± 0.051,1.19 ± 0.069,1.23 ± 0.028,1.3 ± 0.062
PDCL3 (UniProt Q9H2J4),0.9556 ± 0.0082,0.931 ± 0.053,0.917 ± 0.066,0.956 ± 0.07,0.963 ± 0.085,0.939 ± 0.069
UniProt Q9C0D2 and related entries,0.927 ± 0.027,0.913 ± 0.055,0.906 ± 0.035,1.01 ± 0.022,0.956 ± 0.02,0.967 ± 0.033
CWC22 (UniProt Q9HCG8),0.926 ± 0.11,0.916 ± 0.11,0.928 ± 0.11,0.949 ± 0.11,0.932 ± 0.09,0.978 ± 0.13
CUEDC2 (UniProt Q9H467),0.926 ± 0.11,0.926 ± 0.072,0.911 ± 0.061,0.92 ± 0.087,0.868 ± 0.042,0.851 ± 0.1
AGO4 (UniProt Q9HCK5),1.04 ± 0.059,1.02 ± 0.064,0.998 ± 0.089,0.885 ± 0.028,1.01 ± 0.053,1.09 ± 0.026

# A stretch from further up, for reference:
Target,NP40-soluble protein abundance (concentration: 1mM),NP40-soluble protein abundance (concentration: 2mM),NP40-soluble protein abundance (concentration: 4mM),NP40-soluble protein abundance (concentration: 6mM),NP40-soluble protein abundance (concentration: 8mM),NP40-soluble protein abundance (concentration: 10mM)
UniProt Q9H3N1,0.898 ± 0.054,0.904 ± 0.054,0.871 ± 0.025,0.94 ± 0.015,0.853 ± 0.049,0.851 ± 0.037
UniProt Q9H7F0 and related entries,1.07 ± 0.037,1.06 ± 0.091,1.13 ± 0.17,1.12 ± 0.052,1.02 ± 0.024,1.05 ± 0.09

# Reference: the supplement of paper PMC6411743
